{
  "sequences": {"note": "By UniProt entry, the sequences of proteins in these tests, tags left out. Where a name states a change or a piece, a line headed by the entry shows the natural chain unless it says otherwise.", "UniProt P18054": "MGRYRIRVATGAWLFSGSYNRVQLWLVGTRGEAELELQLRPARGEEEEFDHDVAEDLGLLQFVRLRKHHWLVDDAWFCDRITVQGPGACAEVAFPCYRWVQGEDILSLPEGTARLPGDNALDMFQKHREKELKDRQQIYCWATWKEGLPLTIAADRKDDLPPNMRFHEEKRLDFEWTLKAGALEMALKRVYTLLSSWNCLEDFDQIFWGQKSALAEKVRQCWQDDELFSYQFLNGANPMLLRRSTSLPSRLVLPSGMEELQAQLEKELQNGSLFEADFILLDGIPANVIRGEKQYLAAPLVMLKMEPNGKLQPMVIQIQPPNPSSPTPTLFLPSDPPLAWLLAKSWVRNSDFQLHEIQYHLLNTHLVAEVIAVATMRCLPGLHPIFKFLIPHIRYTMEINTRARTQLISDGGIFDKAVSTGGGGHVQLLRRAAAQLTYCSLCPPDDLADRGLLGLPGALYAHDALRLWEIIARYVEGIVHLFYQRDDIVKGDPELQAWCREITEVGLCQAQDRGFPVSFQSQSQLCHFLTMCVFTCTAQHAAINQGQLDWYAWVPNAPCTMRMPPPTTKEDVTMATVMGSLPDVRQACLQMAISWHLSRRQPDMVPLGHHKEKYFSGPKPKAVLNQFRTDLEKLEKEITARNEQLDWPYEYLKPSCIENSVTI"},
  "source": "PubChem BioAssay AID1671190",
  "about": "(National Center for Advancing Translational Sciences (NCATS), 2021)",
  "note": "The whole screen tested about 580,000 compounds, of which about 6,100 (1.1%) were called active. This list was built around the results that the source calls inconclusive (neither active nor inactive); the mix of calls is not that of the screen. Calls follow the shape of the dose curve; as a rule, active = well fitted inhibition curve with a large enough effect; inconclusive = small, poorly fitted or top-dose-only effect, or another doubt; inactive = no such curve, though single readings can be large or run the other way. Potencies beside an inconclusive call are fits to weak or partial responses and may not hold up. % is scaled to controls: 0 for no effect and ±100 for the full control effect; potency is read from the fitted curve at half-maximal effect.",
  "data": [
    {"target": "Polyunsaturated fatty acid lipoxygenase ALOX12 (Homo sapiens) (UniProt P18054)", "test": "Primary qHTS assay for inhibitors of human arachidonate 12S-lipoxygenase (ALOX12): Round 2", "details": "purified 12hLO, xylenol orange hydroperoxide absorbance; activity change, negative = inhibition: at 108 µM (top of the series) unless noted", "in_short": "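Purified human 12hLO at 150 nM in 25 mM Hepes, 0.01% Triton X-100, pH 7.0, preincubated 15 min at room temperature with compound. Reaction started with 40 uM arachidonic acid, 30 min at room temperature. Hydroperoxide measured by Fe-xylenol orange, 573/405 nm absorbance ratio.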", "values": [
      {"molecule": "COc1cc2c(cc1OC)[C@@H](NC(=O)Cc1ccc(F)cc1)[C@H](OCc1ccccc1)C2", "activity change, negative = inhibition": "inactive: 9.23%"},
      {"molecule": "Cc1ccc2nc(SCC(=O)Nc3nonc3N)[nH]c2c1", "activity change, negative = inhibition": "inactive: -1.52%"},
      {"molecule": "Cc1nc(C(=O)NC(C)C)nn1-c1cc(Cl)cc(Cl)c1", "Potency": "inconclusive: 3.55 µM [inhibitor, full curve, poor fit]"},
      {"molecule": "C=CCNC(=O)c1onc(CSc2cccc(OC)c2)c1C(=O)O", "Potency": "inconclusive: 5.01 µM [inhibitor, full curve]"},
      {"molecule": "COC(=O)C1=C(C)N(C(C)C)C(=O)C1(NC(=O)c1ccccc1OC)C(F)(F)F", "note": "(stereo unspecified)", "activity change, negative = inhibition": "inactive: -19.1%"},
      {"molecule": "NC(N)=NN=C(/C=C/c1ccc([N+](=O)[O-])o1)/C=C/c1ccc([N+](=O)[O-])o1", "activity change, negative = inhibition": "inactive: -18.6% [at 22.9 µM]"},
      {"molecule": "CN1CCCN(C(=O)[C@@H]2C[C@@H](Sc3nc4ccccc4[nH]3)CN2Cc2ccc(-c3ccccc3)cc2)CC1", "Potency": "inconclusive: 126 µM [inhibitor, single point]"},
      {"molecule": "NS(=O)(=O)c1ccc(O)c(NC(=O)c2ccc([N+](=O)[O-])o2)c1", "activity change, negative = inhibition": "inactive: 1.41%"},
      {"molecule": "CNC(=O)c1cn2c(n1)CN(S(=O)(=O)c1cccc(OC)c1)CC2", "activity change, negative = inhibition": "inactive: 15.3% [at 6.33 µM]"},
      {"molecule": "CCCc1c(C)nc2ccc(Cl)cc2c1-c1ccccc1", "Potency": "active: 1.78 µM"},
      {"molecule": "CCOC(=O)/C=c1\\s/c(=C(\\C#N)C(=O)NC)n(-c2ccccc2)c1=O", "activity change, negative = inhibition": "inactive: -2.63%"},
      {"molecule": "CC(=O)Nc1ccc(-c2csc(NC(C)c3ccccc3)n2)cc1", "note": "(stereo unspecified)", "Potency": "inconclusive: 44.7 µM [inhibitor, partial curve, poor fit]"},
      {"molecule": "CC1CCC/C(=N\\NC(=S)Nc2ccccc2)C1", "note": "(stereo unspecified)", "Potency": "inconclusive: 50.1 µM [inhibitor, partial curve]"},
      {"molecule": "CC(C)[C@@H](C(=O)NC1CCN(Cc2ccccc2)CC1)N1C(=O)N2CCc3c([nH]c4ccccc34)[C@@]2(C)C1=O", "activity change, negative = inhibition": "inactive: 5.03%"},
      {"molecule": "COc1ccccc1-c1ncc(CN2CCCC3(CCNCC3)CC2)cn1", "activity change, negative = inhibition": "inactive: -15.8%"},
      {"molecule": "COCCCNc1ncc(C(=O)O)c(-c2ccccc2)n1", "Potency": "inconclusive: 2.82 µM [inhibitor, full curve]"},
      {"molecule": "O=C(NC(C1CC1)C1CC1)c1ccccc1Cl", "activity change, negative = inhibition": "inactive: -6.88%"},
      {"molecule": "Cc1ccc(C(=O)NC(C)CCc2ccccc2)cc1[N+](=O)[O-]", "note": "(stereo unspecified)", "activity change, negative = inhibition": "inactive: -1.15%"},
      {"molecule": "Cc1cccc(C(=O)NC(=S)NC(C)c2ccccc2)c1", "note": "(stereo unspecified)", "Potency": "active: 6.31 µM"},
      {"molecule": "COc1ccc(C(=O)Nc2ccc(C)cc2C(=O)c2ccccc2)c(OC)c1", "Potency": "inconclusive: 70.8 µM [inhibitor, partial curve, poor fit]"},
      {"molecule": "COc1cc2oc(=O)cc(CN3CCCC3)c2cc1Cl", "Potency": "inconclusive: 44.7 µM [inhibitor, partial curve, poor fit]"}
    ]}
  ]
}
